# Screening data, single-dose tests

By UniProt entry, the sequences of proteins in these tests, tags left out. Residues count along the entry.
UniProt P9WFT3, whole entry: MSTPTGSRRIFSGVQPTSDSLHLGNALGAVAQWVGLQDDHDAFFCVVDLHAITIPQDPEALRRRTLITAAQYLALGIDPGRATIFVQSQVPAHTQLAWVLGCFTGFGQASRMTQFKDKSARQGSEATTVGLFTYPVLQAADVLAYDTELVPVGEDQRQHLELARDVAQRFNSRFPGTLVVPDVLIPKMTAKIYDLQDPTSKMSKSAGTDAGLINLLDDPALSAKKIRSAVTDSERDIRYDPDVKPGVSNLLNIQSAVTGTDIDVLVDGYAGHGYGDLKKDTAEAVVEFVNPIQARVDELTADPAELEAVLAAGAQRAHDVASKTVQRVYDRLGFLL
UniProt Q4DA54, 1-478: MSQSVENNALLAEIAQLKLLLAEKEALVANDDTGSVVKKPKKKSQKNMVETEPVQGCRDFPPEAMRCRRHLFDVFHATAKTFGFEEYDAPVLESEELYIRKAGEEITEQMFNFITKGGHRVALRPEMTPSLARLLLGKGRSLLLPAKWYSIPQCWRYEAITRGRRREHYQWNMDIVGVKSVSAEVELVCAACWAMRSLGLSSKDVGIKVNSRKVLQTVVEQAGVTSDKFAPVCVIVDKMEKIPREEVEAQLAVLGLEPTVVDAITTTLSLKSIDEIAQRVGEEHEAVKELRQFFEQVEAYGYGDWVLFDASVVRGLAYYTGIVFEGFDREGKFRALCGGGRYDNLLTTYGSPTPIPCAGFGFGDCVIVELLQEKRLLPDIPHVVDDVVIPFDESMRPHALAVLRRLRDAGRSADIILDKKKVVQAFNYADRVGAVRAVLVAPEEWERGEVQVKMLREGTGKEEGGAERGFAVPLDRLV
UniProt Q8IDJ8, 1-583: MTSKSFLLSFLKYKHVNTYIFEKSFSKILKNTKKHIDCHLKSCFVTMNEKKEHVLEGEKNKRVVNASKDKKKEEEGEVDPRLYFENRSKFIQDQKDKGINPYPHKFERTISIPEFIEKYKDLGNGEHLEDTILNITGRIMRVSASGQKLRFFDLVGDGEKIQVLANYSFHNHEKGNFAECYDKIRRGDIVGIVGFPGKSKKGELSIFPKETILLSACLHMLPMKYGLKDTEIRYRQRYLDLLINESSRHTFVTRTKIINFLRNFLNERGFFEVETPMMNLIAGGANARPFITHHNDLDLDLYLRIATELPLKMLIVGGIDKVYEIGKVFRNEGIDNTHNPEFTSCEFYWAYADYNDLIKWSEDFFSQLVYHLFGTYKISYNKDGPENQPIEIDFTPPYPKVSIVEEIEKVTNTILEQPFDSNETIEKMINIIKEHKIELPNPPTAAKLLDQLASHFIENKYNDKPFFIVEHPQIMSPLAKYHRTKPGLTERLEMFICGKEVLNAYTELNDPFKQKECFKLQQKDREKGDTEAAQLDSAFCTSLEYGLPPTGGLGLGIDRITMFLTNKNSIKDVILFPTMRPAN
UniProt P9WNZ1, whole entry: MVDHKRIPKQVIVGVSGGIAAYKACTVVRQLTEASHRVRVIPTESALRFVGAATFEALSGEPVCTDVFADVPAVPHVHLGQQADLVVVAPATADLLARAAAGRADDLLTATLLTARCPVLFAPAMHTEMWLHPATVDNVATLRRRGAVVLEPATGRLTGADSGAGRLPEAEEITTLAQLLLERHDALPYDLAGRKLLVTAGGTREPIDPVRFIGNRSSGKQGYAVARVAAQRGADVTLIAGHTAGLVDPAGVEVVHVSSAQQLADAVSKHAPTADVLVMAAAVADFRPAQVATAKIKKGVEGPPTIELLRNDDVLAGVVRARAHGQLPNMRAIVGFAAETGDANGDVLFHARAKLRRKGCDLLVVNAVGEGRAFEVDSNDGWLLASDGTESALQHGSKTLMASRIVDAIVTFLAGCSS
UniProt I6X8D2, whole entry: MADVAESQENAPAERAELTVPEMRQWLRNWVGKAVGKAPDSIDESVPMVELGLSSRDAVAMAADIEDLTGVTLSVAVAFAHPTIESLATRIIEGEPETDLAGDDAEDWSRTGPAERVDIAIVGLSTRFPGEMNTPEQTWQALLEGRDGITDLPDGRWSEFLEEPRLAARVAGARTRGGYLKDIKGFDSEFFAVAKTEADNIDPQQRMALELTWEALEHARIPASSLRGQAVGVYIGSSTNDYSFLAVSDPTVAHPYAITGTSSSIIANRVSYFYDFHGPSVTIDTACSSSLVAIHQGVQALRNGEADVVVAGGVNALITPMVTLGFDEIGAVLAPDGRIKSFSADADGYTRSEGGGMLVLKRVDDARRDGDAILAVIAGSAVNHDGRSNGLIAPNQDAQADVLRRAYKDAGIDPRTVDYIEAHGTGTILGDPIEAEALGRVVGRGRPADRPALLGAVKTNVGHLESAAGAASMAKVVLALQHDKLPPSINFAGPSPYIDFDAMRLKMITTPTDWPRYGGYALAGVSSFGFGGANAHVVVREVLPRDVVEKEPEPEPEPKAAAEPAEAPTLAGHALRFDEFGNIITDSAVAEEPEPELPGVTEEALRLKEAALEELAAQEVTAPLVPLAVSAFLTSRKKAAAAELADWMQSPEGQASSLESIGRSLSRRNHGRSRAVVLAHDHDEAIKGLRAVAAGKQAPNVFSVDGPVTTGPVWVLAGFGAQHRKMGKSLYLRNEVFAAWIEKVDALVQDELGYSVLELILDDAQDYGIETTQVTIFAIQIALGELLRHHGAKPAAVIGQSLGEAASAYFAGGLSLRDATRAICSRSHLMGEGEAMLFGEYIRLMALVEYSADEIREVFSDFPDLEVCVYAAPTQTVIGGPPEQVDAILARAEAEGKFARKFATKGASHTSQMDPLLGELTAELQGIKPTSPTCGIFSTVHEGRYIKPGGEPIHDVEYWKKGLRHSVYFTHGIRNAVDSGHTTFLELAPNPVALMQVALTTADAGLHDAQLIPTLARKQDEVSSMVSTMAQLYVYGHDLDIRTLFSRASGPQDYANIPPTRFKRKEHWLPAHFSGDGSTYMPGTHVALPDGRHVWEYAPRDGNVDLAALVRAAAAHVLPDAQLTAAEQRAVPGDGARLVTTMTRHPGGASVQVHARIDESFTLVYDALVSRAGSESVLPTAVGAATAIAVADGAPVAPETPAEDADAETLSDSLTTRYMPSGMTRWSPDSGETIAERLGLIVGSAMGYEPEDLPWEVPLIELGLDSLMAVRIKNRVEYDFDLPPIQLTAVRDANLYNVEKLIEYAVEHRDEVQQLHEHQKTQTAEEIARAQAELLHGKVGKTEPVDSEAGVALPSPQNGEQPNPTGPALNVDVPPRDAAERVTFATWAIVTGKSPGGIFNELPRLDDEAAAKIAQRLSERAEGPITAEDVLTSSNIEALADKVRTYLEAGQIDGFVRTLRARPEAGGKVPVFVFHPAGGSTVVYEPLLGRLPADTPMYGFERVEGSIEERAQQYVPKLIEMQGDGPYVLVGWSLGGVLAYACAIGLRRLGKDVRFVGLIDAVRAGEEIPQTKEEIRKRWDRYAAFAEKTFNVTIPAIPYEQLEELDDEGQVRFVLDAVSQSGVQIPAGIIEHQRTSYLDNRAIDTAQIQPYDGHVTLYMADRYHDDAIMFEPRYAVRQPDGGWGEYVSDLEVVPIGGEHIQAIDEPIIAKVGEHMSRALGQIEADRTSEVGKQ

Values are the deposited “Percent Effect”, in %.
The controls that fix the scale are not given in the record; negative values are as filed.
This is an unselected part of the compounds tested.
A dash means the value is not listed here; it may have been measured.

A: 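Tryptophan-tRNA ligase, Mycobacterium tuberculosis (UniProt P9WFT3). Enzyme assay of tryptophanyl-tRNA synthetase; the read-out is not stated. Compounds at 10 µM. Higher most likely means stronger inhibition; the record gives no direction and few retests gave an IC50. About 65,000 compounds were tested under these conditions; 0.098% (about 64) showed 50% or more at least once.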
B: 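Histidine-tRNA ligase, Trypanosoma cruzi CL Brener (UniProt Q4DA54). Enzyme assay of histidyl-tRNA synthetase; the read-out is not stated. Concentration: 30 µM. Direction is inferred from retests: higher values go with stronger inhibition. Size under these conditions: about 69,000 compounds, about 31 of them at 50% or above in at least one test.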
C: 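Enzyme assay of the cytosolic lysyl-tRNA synthetase in 384-well plates, read by luminescence. Target: Lysine-tRNA ligase, Plasmodium falciparum 3D7 (UniProt Q8IDJ8). Concentration: 30 µM. Direction is inferred from only a few compounds that gave an IC50; most scored high, so higher reads as stronger inhibition. About 69,000 compounds were tested under these conditions; 0.071% (about 49) showed 50% or more at least once.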
D: 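Enzyme assay of CoaBC with a phosphate dye (Biomol Green) read at 650 nm. Target: Coenzyme A biosynthesis protein CoaBC, Mycobacterium tuberculosis (UniProt P9WNZ1). Concentration: 30 µM. Higher reads as stronger inhibition, judged from the few compounds that gave an IC50. Most strong results did not repeat in a second test. About 67,000 compounds were tested under these conditions; 0.06% (about 40) showed 50% or more at least once.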
E: 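Polyketide synthase Pks13, Mycobacterium tuberculosis (UniProt I6X8D2). Enzyme assay of the thioesterase domain of polyketide synthase 13; the read-out is not stated. Tested at 30 µM. Higher reads as stronger inhibition (inferred from which compounds were picked for retests). Of about 67,000 compounds tested this way, about 300 (0.46%) reached 50% or more in at least one test.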
F: 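Cell assay of Leishmania donovani living inside macrophages; the read-out is not stated. Compounds at 30 µM. The record gives no direction; compounds that gave an IC50 in retests scored well above the rest, so higher reads as stronger inhibition. Size under these conditions: about 69,000 compounds, about 1,000 of them at 50% or above in at least one test.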

{"smiles": "CN1CC2(CCN(C(=O)CCCOCc3ccccc3)C2)OC1=O", "stereo": "stereo not given", "A": 4.996, "B": 6.03, "C": 1.953, "D": 3.236, "E": -10.24, "F": -8.379}
{"smiles": "C=Cc1cccc(CN2CCCn3nc(CNS(C)(=O)=O)cc3C2)c1", "A": -5.103, "B": 4.082, "C": 12.23, "D": 6.349, "E": 5.844, "F": 8.14}
{"smiles": "CC(C)CCS(=O)(=O)CC(=O)N1CCCC1c1cnn(C)c1", "stereo": "stereo not given", "A": -0.9382, "B": 2.041, "C": 4.081, "D": -2.122, "E": -15.15, "F": 39.15}
{"smiles": "O=C(c1ccccc1)N1CCOC2CNCC[C@H]21", "stereo": "stereo not given in full", "B": 8.84, "C": 6.342, "D": 1.733, "E": -6.937}
{"smiles": "Cc1cccc(N2CC3(CCN(S(=O)(=O)C4CC4)C3)C2)n1.O=C(O)C(F)(F)F", "F": 7.565}
{"smiles": "COCC1c2c(cnn2CC2CC2)CCN1Cc1cccs1.O=C(O)C(F)(F)F.O=C(O)C(F)(F)F", "stereo": "stereo not given", "F": -1.641}
{"smiles": "COCCOc1ccnc(-c2noc([C@@H]3CCCN3CC(C)(C)C)n2)c1", "A": -1.593, "B": 4.348, "C": 0.1513, "D": 5.519, "F": 14.93}
{"smiles": "Cc1ccc(CN(CCN(C)C)Cc2c(C)nc3sccn23)o1", "A": 3.329, "B": 1.695, "C": 0.9288, "D": -8.959, "E": -9.502}
{"smiles": "CC(=O)NCc1nnc2n1CCN(c1nc(C)nc3sccc13)CC2", "A": -4, "B": 4.516, "C": 1.402, "D": 0, "E": -8.847, "F": 14.86}
{"smiles": "CO[C@H]1CNC[C@@H]1NC(=O)c1cc(C)nc2c(C)cc(C)cc12", "A": -0.3276, "B": 9.392, "C": 1.154, "D": -36.61, "E": -28.72, "F": 20.97}
{"smiles": "Cc1nc2c(Nc3ccc(C#N)cc3)nc(N)nc2n1C", "A": -2.151, "B": 7.018, "C": 0.5526, "D": 6.774, "E": 18.14, "F": 30.65}
{"smiles": "CCOCC1CN(C)Cc2cnn(CC3CCCC3)c21.O=C(O)C(F)(F)F.O=C(O)C(F)(F)F", "stereo": "stereo not given", "F": 34.27}
{"smiles": "Cn1ccc(CN2CCC(CCc3ccc(O)cc3)CC2)cc1=O", "A": -5.166, "B": 1.88, "C": 2.686, "D": 10.18, "E": -11.08, "F": 29.53}
{"smiles": "CC(C)C(=O)NS(=O)(=O)c1ccc(F)c(C(F)(F)F)c1", "A": 5.815, "B": 12.31, "C": -1.22, "D": 2.985, "E": -13.45, "F": 6.429}
{"smiles": "O=C(C1CCCN(Cc2cccnc2)C1)N1CCc2sccc2C1", "stereo": "stereo not given", "A": 3.744, "B": 19.08, "C": 0.4374, "D": -4.218, "E": -11.26, "F": 15.08}
{"smiles": "COC(=O)C1CCN(C(=O)Cn2nc(C)nc2-c2ccccc2)CC1", "A": 0.08937, "B": 6.878, "C": 8.688, "D": -7.356, "E": -11.23, "F": 27.69}
{"smiles": "COc1cc(N2C[C@H]3CCC[C@@H](CN4CCCC4)[C@H]3C2)ncn1", "A": 1.299, "B": 12.61, "C": -2.287, "D": 10.34, "E": -21.17}
{"smiles": "COc1cc(C#N)ccc1OC12CCCN(CC1)C2", "stereo": "stereo not given", "A": 3.301, "B": 11.88, "C": 2.219, "D": -3.373, "E": -6.159, "F": 20.92}

2 of the entries, repeated:

SMILES,A,B,C,D,E,F
COc1cc(N2C[C@H]3CCC[C@@H](CN4CCCC4)[C@H]3C2)ncn1,1.299,12.61,-2.287,10.34,-21.17,-
CC(C)CCS(=O)(=O)CC(=O)N1CCCC1c1cnn(C)c1 (stereo not given),-0.9382,2.041,4.081,-2.122,-15.15,39.15

From ChEMBL document CHEMBL3988442, “University of Dundee, Small-Polar-MMV Screening Library” (2021).